The assay in a line: qHTS Assay to Find Inhibitors of Chronic Active B-Cell Receptor Signaling. Conditions: ABC-DLBCL IkBa-CBG/CBR reporter, luminescence ratio (green luciferase fused to IkBa over red control in TMD8 lymphoma cells), 4 h. A digest of the protocol:
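Doxycycline induced both beetle luciferases in TMD8 lymphoma cells; IKK-driven degradation limits the IkappaBalpha-fused green signal, while red luminescence normalises for cell number and nonspecific effects. Compounds tested up to 46 uM, 4 hrs.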
(Quantitative high-throughput screening tests each substance at several concentrations.)

Setting [1] is: measured here: CBR red luminescence, cell number.
[2] abbreviates: measured here: IkBa-CBG green luminescence.

What is called AC50 is the midpoint of the concentration-response curve, whichever way the signal moves.

The list shows a part of the results. The main result of the screen is listed elsewhere. These columns were measured beside it and carry no call. Compounds called inactive in the main read-out are mostly missing here. Potencies come from curve fits of mixed quality, noted in brackets.

For `CCc1cc2c(=O)nc3n(c2s1)Cc1ccccc1/C3=C(/O)c1ccc(F)cc1`, the concentration at half-maximal activity (AC50) under setting [1] is 29.1 µM [falling, single point]. For `COCCNC(=O)CN1CCC(NC(=O)c2ccco2)CC1`, the AC50 under setting [1] was 4.47 µM [falling, full curve, poor fit]. Same read-out and setting: under `CCN(CC)CCN(Cc1cc2cc(C)c(C)cc2[nH]c1=O)C(=S)NCc1ccco1` stands 5.01 µM [falling, partial curve]. `O=C1COc2ccc(S(=O)(=O)NCCc3ccccc3)cc2N1`: the concentration at half-maximal activity (AC50) under setting [1] is 20 µM [rising, single point]. For `CCOC(=O)c1cc(-c2ccc(OC)cc2)nn1-c1ccc(C(=O)O)cc1`, the AC50 under setting [1] is 25.1 µM [falling, single point]. On the same count and under the same terms, under `COc1cccc(NC(=O)c2ccccc2)c1` stands 16.4 µM [falling, partial curve]; under `O=S(=O)(c1cccc(C(F)(F)F)c1)N1CCN(CC(O)COCc2ccccc2)CC1` (stereo unspecified), 32.6 µM [falling, partial curve, poor fit]; under `COc1cccc(C(=O)N2CCN(Cc3cn[nH]c3-c3ccc(F)cc3F)CC2)c1`, 35.5 µM [falling, single point]. As to `CCCCCc1ccc(CC(=O)Nn2c(C)nc3ccccc3c2=O)cc1`, the concentration at half-maximal activity (AC50) is 32.6 µM [falling, single point] under setting [1] and 20.6 µM [rising, partial curve, poor fit] under setting [2]. For the compound `COC(=O)c1cc(OC)c(OC)cc1NC(=O)c1cnccn1`, the AC50 under setting [1] was 14.6 µM [rising, partial curve, poor fit].

As for `C=CCN=C1NN=C(c2ccc3c(c2)OCCO3)CS1`, under setting [1], the AC50 is 0.891 µM [rising, partial curve, poor fit]. With `CCn1c(SCC(=O)Nc2cc(C)on2)nc2c1c(=O)n(C)c(=O)n2C`, the AC50 under setting [1] was 29.1 µM [rising, single point]. On the same count and under the same terms, then `O=C(Nc1sc2c(c1C(=O)O)CCC2)c1ccccc1`, with 0.651 µM [falling, full curve, poor fit]; and `CCCNc1c(NS(=O)(=O)c2ccc3c(c2)CCCC3)c(=O)oc2ccccc12`, with 15.8 µM [falling, partial curve]; and `CCn1c(SCC(=O)NCCOC)nc2sc3c(c2c1=O)CCCC3`, with 0.398 µM [rising, full curve]. For `Cn1c(Cl)nc2c1c(=O)n(Cc1cccc(Br)c1)c(=O)n2C`, the AC50 under setting [1] was 1.16 µM [falling, full curve, poor fit]. As for `Cc1cc2ncn(C(=O)N3CCCCCC3)c2cc1C`, the AC50 under setting [1] is 29.1 µM [rising, single point]. Turning to `Cc1ccc(Nc2ccc([N+](=O)[O-])cn2)cc1Cl`, under setting [1], the AC50 was 14.1 µM [rising, partial curve]. Take `CCCOc1ccccc1OCC(=O)Nc1cccc(S(=O)(=O)NC2=NCCC2)c1`: the concentration at half-maximal activity (AC50) under setting [1] is 14.6 µM [falling, partial curve].

Take `O=C(NCCc1ccccc1)c1cc2ncc(Br)cn2n1`: the AC50 under setting [1] is 3.66 µM [rising, full curve, poor fit]. Same read-out and setting: then `CCOc1ccccc1NC(=O)CSc1nnnn1C1CCCC1`, with 14.1 µM [falling, partial curve]; and `O=[N+]([O-])c1ccccc1N/N=C1\CCc2ccccc21`, with 35.5 µM [rising, partial curve, poor fit]; and `COc1ccc(C(=O)NC(=S)N(Cc2ccccc2)Cc2ccccc2)cc1`, with 3.55 µM [rising, single point].

In the case of `CCc1ccccc1NC(=S)N1CCC(C(=O)c2ccc(F)cc2)CC1`, the half-maximal activity concentration (AC50) under setting [1] was 35.5 µM [falling, single point]. Take `CN(C)CCCn1c2c(c(SCC(=O)Nc3ccc4c(c3)OCCO4)nc1=O)CCC2`: the AC50 under setting [1] is 29.1 µM [falling, single point]. With `COc1ccc(F)cc1S(=O)(=O)N1CCC2(CC1)OCCN2S(=O)(=O)c1cccs1`, the AC50 under setting [1] is 18.4 µM [falling, partial curve, poor fit]. Turning to `CCOC(=O)CC1(C)SC(NC(C)=O)=NN1C(C)=O` (stereo unspecified), the AC50 under setting [1] is 31.6 µM [falling, single point]. The same measure, in the same setting: then `COc1ccc(N(CC(=O)N2CCCC(C)C2)S(=O)(=O)c2c(C)nn(C)c2C)cc1` (stereo unspecified), with 12.6 µM [rising, partial curve, poor fit]; and `COC(=O)c1cccc(Nc2c(-c3cc(Br)ccc3O)nc3nc[nH]n23)c1`, with 31.6 µM [falling, partial curve, poor fit]; and `COc1ccc(C2=NN(C(=O)CSc3nnc(-c4ccccc4F)o3)C(c3ccco3)C2)cc1` (stereo unspecified), with 29.1 µM [rising, single point]. With `Cc1cc(C)cc(OCC(=O)Nc2ccc(-c3nc4ncccc4o3)cc2C)c1`, the AC50 under setting [1] is 35.5 µM [rising, single point]. Still for that read-out and setting: under `O=C(CSc1n[nH]c(-c2ccccc2)n1)c1ccc(O)c(O)c1` stands 20 µM [falling, single point]; under `O=c1cccc2n1Cc1cc3ccccc3nc1-2`, 0.326 µM [falling, full curve, poor fit]. Take `CCOc1ccccc1NC(=O)c1c(NCc2ccc(OC)c(OC)c2OC)sc2c1CCC(C)C2` (stereo unspecified): the AC50 under setting [1] was 17.8 µM [falling, single point]. With `O=C(N/N=C/c1cccc(O)c1)c1ccc(NC(=O)c2cccc([N+](=O)[O-])c2)cc1`, under setting [1], the concentration at half-maximal activity (AC50) is 22.4 µM [falling, partial curve, poor fit]. As to `O=C(Nc1nccs1)c1ccc(COc2ccccc2Br)o1`, the concentration at half-maximal activity (AC50) was 23.1 µM [falling, partial curve, poor fit] under setting [1] and 7.31 µM [rising, partial curve, poor fit] under setting [2]. On to `Cc1cc(N2CCOCC2)nc(-c2ccc(Br)cc2)n1`, for which the AC50 under setting [1] is 20.6 µM [rising, partial curve]. The same measure, in the same setting: then `CC1CCCC(NS(=O)(=O)c2ccc3c(c2)OCCO3)C1C` (stereo unspecified), with 35.5 µM [falling, single point]; and `CCN(CC)C(=O)[C@H]1CC(CC(=O)NCc2ccco2)C(=O)N2CCc3c([nH]c4ccc(OC)cc34)[C@]12C` (stereo partly specified), with 29.1 µM [rising, single point]; and `Cc1ccc(C)c(Cn2c(=O)n(CCCC(=O)NCc3ccco3)c(=O)c3sccc32)c1`, with 0.103 µM [falling, full curve, poor fit]. With `COc1ccc(/C=N/NC(=O)C2C3CCCCC32C)cc1OC` (stereo unspecified), the AC50 reads like this: under setting [1], 12.6 µM [rising, single point]; under setting [2], 10 µM [falling, partial curve, poor fit]. Turning to `O=S(=O)(c1cccs1)N1CN(Cc2ccco2)c2nc3ccccc3nc21`, under setting [1], the half-maximal activity concentration (AC50) was 35.5 µM [falling, single point]. Turning to `Fc1ccc(Nc2nc(-c3cccnc3)cs2)cc1`, the concentration at half-maximal activity (AC50) under setting [1] was 0.708 µM [rising, full curve, poor fit]. Same read-out and setting: under `CC(C)c1ccc(NC(=O)CNC(=O)Cn2cnc3ccccc3c2=O)cc1` stands 20 µM [rising, single point]; under `CC(C)CCn1nc(C(=O)Nc2nc3c(s2)CCCC3)c2ccccc2c1=O`, 18.4 µM [rising, partial curve]; under `CCc1ccc(OC)c(S(=O)(=O)NCc2cccs2)c1`, 0.146 µM [rising, full curve, poor fit]. For `O=[N+]([O-])c1cccc(/C=C/c2nc(C=Nc3ccccc3)c(O)o2)c1`, the AC50 under setting [1] is 8.2 µM [rising, single point]. On the same count and under the same terms, then `O=C(c1c[nH]c(C(=O)C(Cl)(Cl)Cl)c1)c1ccccc1F`, with 10 µM [falling, partial curve]; and `O=C(O)CCC(=O)N1N=C(c2c(-c3ccccc3)c3cc(Cl)ccc3[nH]c2=O)CC1c1cccs1` (stereo unspecified), with 20.6 µM [falling, single point]. The same measure, in the same setting: then `CC1(C)CC(=O)C2=C(C1)N(Cc1ccco1)C(=O)C2(NC(=O)C1CCCCC1)C(F)(F)F` (stereo unspecified), with 29.1 µM [falling, single point]; and `C(=N\Nc1nc(Nc2ccccc2)nc(Nc2ccccc2)n1)/c1cccnc1`, with 1.58 µM [falling, full curve]; and `Cc1cc(C)c(-n2c(SCCS(=O)(=O)c3ccc(F)cc3)n[nH]c2=O)c(C)c1`, with 17.8 µM [falling, partial curve, poor fit]. The same measure, in the same setting: then `Cc1cc(C)cc(N2C(=O)CC(Sc3nnnn3-c3ccccc3)C2=O)c1` (stereo unspecified), with 22.4 µM [falling, single point]. For `CCOC(=O)c1sc2c(c1C)c(=O)c(C(=O)OCC)cn2CC`, the AC50 under setting [1] was 17.8 µM [falling, partial curve, poor fit].

As for `Cc1ccc(NC(=O)CSc2nnc(C3CCCCC3)n2N)cc1F`, the AC50 under setting [1] was 7.08 µM [falling, partial curve, poor fit]. Still for that read-out and setting: then `CC(C)Sc1nc2ccc(N3C(=O)C4CCCCC4C3=O)cc2s1` (stereo unspecified), with 7.31 µM [rising, partial curve]. Same read-out and setting: then `Cc1ccc(-c2nc3c(c(=O)c4ccccc4n3C)c(=O)n2-c2ccc(F)cc2)cc1`, with 7.94 µM [rising, partial curve, poor fit]. The same measure, in the same setting: then `Cn1c(=NC(=O)c2ccc(F)cc2)sc2cc(Br)ccc21`, with 1.26 µM [rising, full curve, poor fit]. For the compound `CCC(=O)NCCc1nc2cc(NC(=O)COc3ccccc3)ccc2n1C`, the AC50 under setting [1] was 22.4 µM [falling, partial curve]. Still for that read-out and setting: then `CCCCOC(=O)Nc1ccccc1C(=O)N1CCCC1`, with 32.6 µM [rising, partial curve, poor fit]; and `CCC1(C)N=C(c2ccc3c(c2)OCO3)CC(c2ccccc2O)N1` (stereo unspecified), with 20.6 µM [falling, partial curve]; and `CSc1ncc(C(=O)Nc2ccc(Cl)cc2)c(C)n1`, with 5.62 µM [falling, partial curve, poor fit]. Same read-out and setting: then `Nc1cccc2c1C(=O)N(C(=O)c1ccc(S(=O)(=O)N3CCCCCC3)cc1)C2=O`, with 29.1 µM [rising, single point].

Values taken from PubChem BioAssay AID493014 (National Center for Advancing Translational Sciences (NCATS), 2011).
